For some assays here: Weaker means in comparison with the reference protein, sequence or condition of that experiment. Protein sequences can lack the tags named with them. For some assays here: Construct, isoform or probe ends are uncertain for at least one entry.

Data set [1] has as its target T1, REF6 ZnF1-4 WT (Arabidopsis thaliana) (UniProt Q9STM3).
T1 sequence (looked up): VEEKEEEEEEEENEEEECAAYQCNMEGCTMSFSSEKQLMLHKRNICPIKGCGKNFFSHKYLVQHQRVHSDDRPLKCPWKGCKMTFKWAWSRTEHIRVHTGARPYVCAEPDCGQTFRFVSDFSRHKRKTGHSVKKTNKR
In words: EMSA. As to conditions: methylcytosine at position 9 of strand 2 (9'C); EMSA: 30 uM protein, 10 uM dsDNA, 20 mM Tris pH 8.0, 100 mM NaCl, 2.5 mM MgCl2, 0.1% CA-630, 10% glycerol, 1 uM ZnSO4, 1 mM DTT, 4 C; recombinant protein; residues 1223-1360; label: FAM in MST. (In general: A gel shift assay detects complexes by their altered migration in electrophoresis.)

Data set [2] concerns the target T1, REF6 ZnF1-4 WT (Arabidopsis thaliana). In words: MST. Conditions: MST: 20 mM HEPES pH 7.3, 150 mM NaCl, 0.2 mM TCEP, 0.5% CA-630, 25 C; recombinant protein; residues 1223-1360; label: FAM.

Regarding “CTTTCTCTGTTTTGTC / GGACAAAACAGAGAAA [m5-m9'C]”, the binding result in data set [1] was “binds more weakly”.
As usually defined, the Kd is the equilibrium constant for the complex coming apart. “TTCTCTGTTT (double strand) [NAC004 10-bp]”: the Kd in data set [2] turned out to be 483 µM.

For the origin of these results see publication PMC7105484, “Crystal structures of REF6 and its complex with DNA reveal diverse recognition mechanisms” (Cell Discovery, 2020).
